Measured values from PMC9671898.

T1: cCFP-U2AF65A (Arabidopsis thaliana) (UniProt O23212)
T1 sequence: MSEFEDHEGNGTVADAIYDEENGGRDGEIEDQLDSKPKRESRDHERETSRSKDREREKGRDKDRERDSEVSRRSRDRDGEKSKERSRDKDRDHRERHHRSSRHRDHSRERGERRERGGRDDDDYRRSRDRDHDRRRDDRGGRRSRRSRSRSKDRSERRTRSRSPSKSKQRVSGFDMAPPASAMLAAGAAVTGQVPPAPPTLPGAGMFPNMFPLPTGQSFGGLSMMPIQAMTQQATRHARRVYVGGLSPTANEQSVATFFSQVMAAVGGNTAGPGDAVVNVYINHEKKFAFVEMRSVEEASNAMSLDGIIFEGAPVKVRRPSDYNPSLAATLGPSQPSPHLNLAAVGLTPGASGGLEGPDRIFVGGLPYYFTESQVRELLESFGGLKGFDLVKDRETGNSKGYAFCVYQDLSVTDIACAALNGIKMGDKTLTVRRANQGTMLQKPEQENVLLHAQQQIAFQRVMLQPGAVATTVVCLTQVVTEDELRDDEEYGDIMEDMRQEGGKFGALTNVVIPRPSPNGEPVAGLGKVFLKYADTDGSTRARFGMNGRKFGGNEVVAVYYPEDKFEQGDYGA

B1: CIS1 (CRY2 … SPLICING FACTOR 1) fused to the GAL4 activation domain (pGADT7) (protein, UniProt Q94C11 1-443)
chain: MDKGAPPSIFVNDGSFMERFRQLQQEKDKDKDKVVQVEDSKPVKIISNPKPAANKISIGLKPNDAQKKGGKLAFSLKQKSKLLAPPVKLGTEEDEDDEDVKHEQGFGSVKRQKLEQRDTPVKSAKVSDVAPPPPSDPTVKKVADKLASFVAKHGRPFEHITRQKNPGDTPFKFLFDENCADYKYYVFRLAEEEKLISQTKDSGVLHSGDAGSRTSTAAIPLQKPAYQQTGYQIPASALYDTPVEPGASSRSAQASITRPSDSDSFSGPRGADPLSMMEFYMKKAAQEEKMRRPRQSKDEMPPPASLQGPSETSSTDPGKRGHHMGDYIPLEELDKFLSKCNDAAAQKATKEAAEKAKIQADNVGHKLLSKMGWKEGEGIGSSRKGMADPIMAGDVKTNNLGVGASAPGEVKPEDDIYEQYKKRMMLGYKHRPNPLGNPRKAYY

Legend:
[1] = target: T1, cCFP-U2AF65A (Arabidopsis thaliana); test: split reporter; BiFC: fusions to CFP(155-238) and YFP(1-172) co-infiltrated into N. benthamiana leaves; plants left under long days, white light, 3 days
[2] = target: N-terminal domain of CRY2 fused to the GAL4 DNA binding domain (pBridge) (Arabidopsis thaliana); test: two-hybrid; CRY2 fragments with CIS1: β-galactosidase assay of Y190 colonies patched in duplicate on -Leu/-Thr plates, one duplicate under blue light (30 μmol m^-2 s^-1) at 28 °C for 2-3 days, the other wrapped in aluminum foil

Row | Molecule | binding [1] | binding [2]
1 | CIS1(ΔN)-nYFP (Arabidopsis thaliana) (domain or fragment) | no binding | 
2 | B1 |  | binds

Results are given in words; binding and its absence hold for the method and conditions named. For some assays here: Binding can be weak; no strength is given. Sequences can lack the tags named with a protein. For some assays here: In cells and extracts the contact can be indirect.
